# Experimental data as given in article PMC7819943, “Rice protein-binding microarrays: a tool to detect cis-acting elements near promoter regions in rice”.
# Some of the results follow.
# Biological target: T1, OsSMF1 (Oryza sativa, UniProt Q6ZLB0 1-436)
# T1 sequence: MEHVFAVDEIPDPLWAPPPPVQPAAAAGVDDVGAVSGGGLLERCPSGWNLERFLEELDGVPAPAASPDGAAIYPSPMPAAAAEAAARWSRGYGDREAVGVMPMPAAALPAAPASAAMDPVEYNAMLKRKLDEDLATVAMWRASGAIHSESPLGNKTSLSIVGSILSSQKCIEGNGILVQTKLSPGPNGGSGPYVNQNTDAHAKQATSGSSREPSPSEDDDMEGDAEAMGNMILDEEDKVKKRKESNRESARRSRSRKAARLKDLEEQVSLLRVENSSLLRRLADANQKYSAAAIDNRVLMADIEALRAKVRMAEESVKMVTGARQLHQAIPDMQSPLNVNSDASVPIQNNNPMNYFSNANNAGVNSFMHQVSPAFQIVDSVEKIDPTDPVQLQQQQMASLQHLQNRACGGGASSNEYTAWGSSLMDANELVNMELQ
# Experiment: protein-binding microarray (RPBM); PBS, 2% BSA, 51.3 ng/ul salmon testes DNA, 50 uM zinc acetate, 200 nM TF, 25 C, 1 h; high values mean tight binding
# Details: protein: recombinant; tags: N-terminal polyhistidine and DsRed monomer fusion (pET32a); chain copies: 2; label: CyDye5-dUTP incorporated in the synthesized complementary strand; 3' TTTTT single-stranded linker to array surface; dsDNA, one strand shown
# Outline: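 Ni–NTA purification followed expression in E. coli BL21-CodonPlus of transcription factors fused N-terminally to a polyhistidine tag and DsRed. At 200 nM in PBS with 2% BSA, salmon testes DNA and 50 µM zinc acetate, the protein was incubated for 1 h at 25 °C with a custom Agilent array that had been primer-extended with Cy5-dUTP and blocked with 2% BSA. After washing, the array was read on an Axon 4000B scanner. The binding signal is per-feature fluorescence intensity in arbitrary units.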
row,Sequence,binding signal
1,CAAAGCTATACCAACTCAATTACAACTAGCTGTCACACTTCGGAGTCACCTAGTGCAG,36800 fluorescence intensity (a.u.)
2,AAATTTTGGCTCGAGTGCGTGTTACACGTGAACGCGGCAGCGGAGTCACCTAGTGCAG,4030 fluorescence intensity (a.u.)
3,CACGATCCTGGGTCGCGAGCGCGCCATCGTCGTCAACCTGCGGAGTCACCTAGTGCAG,3490 fluorescence intensity (a.u.)
4,TACACTATTAATATCTGGTCCCACCTGTCATACACACACTCGGAGTCACCTAGTGCAG,3720 fluorescence intensity (a.u.)
5,CACTACTGACAATTCATCGATCGATCACTGCGTGCTACTCCGGAGTCACCTAGTGCAG,3420 fluorescence intensity (a.u.)
6,GCCCAACTCTAACAAAAGCCTATTTAACATTACCGGCCCACGGAGTCACCTAGTGCAG,3530 fluorescence intensity (a.u.)
7,TTCCTTGTGTGAGGTCAGCACTATGTCTTTTCCATGCTACCGGAGTCACCTAGTGCAG,5810 fluorescence intensity (a.u.)
8,ATGGCTAATTATGGACTAATTAGACTCAAAAGATTCGTTTCGGAGTCACCTAGTGCAG,22500 fluorescence intensity (a.u.)
9,GGTAGTACCATGAAGAGCAAAATTAACGCGTCCTCCTCCCCGGAGTCACCTAGTGCAG,3520 fluorescence intensity (a.u.)
10,AATCGCAGCGTTCCCCGTCCCTCTCTCTCCTTTCCTCCTCCGGAGTCACCTAGTGCAG,3160 fluorescence intensity (a.u.)
11,CAGCATGCATGCTCAGCGTCGTTGCCGTGTAGATATTCCCCGGAGTCACCTAGTGCAG,3450 fluorescence intensity (a.u.)
12,TCTCTCTGTGTGTGTTTGTGTCATATATGAGTTTGTGGGTCGGAGTCACCTAGTGCAG,7040 fluorescence intensity (a.u.)
13,GGTCATTCCCGAGTCCCCATCTGGCCATCTCTCCAATCTCCGGAGTCACCTAGTGCAG,4460 fluorescence intensity (a.u.)
14,AAAACATTATGATCAATTATACGTCGCCACGCCAGCTGTCCGGAGTCACCTAGTGCAG,6960 fluorescence intensity (a.u.)
15,ATTTTAATGAATCATCAGTAGCTGACGCCATGCCTTAGCCCGGAGTCACCTAGTGCAG,4080 fluorescence intensity (a.u.)
16,ACCAGGCGACCAAGATGACGACTGTGTCAAAGCCTTTTCTCGGAGTCACCTAGTGCAG,4410 fluorescence intensity (a.u.)
17,AAAATCCACTGTAACATTTGATCCGTACATAGTGAAACATCGGAGTCACCTAGTGCAG,38500 fluorescence intensity (a.u.)
18,GGGTGACGATTTTGTAATTCGATGACAAGTTGAGGGACCTCGGAGTCACCTAGTGCAG,3660 fluorescence intensity (a.u.)
19,GTGAAAGACACGCCGAACATGGATGCCGTCTACACCTCCTCGGAGTCACCTAGTGCAG,3220 fluorescence intensity (a.u.)
20,GATTTACTCGCTCCAGATTAGCACACGCACGCACGTAGGGCGGAGTCACCTAGTGCAG,4620 fluorescence intensity (a.u.)
21,GCTTCCGCGTCACTCCGCTCGCCTCCAAAACCACACCGCGCGGAGTCACCTAGTGCAG,6860 fluorescence intensity (a.u.)
22,GATCGGATGCCACGTGTCGCGCGACACCCAAACCCACGGCCGGAGTCACCTAGTGCAG,12100 fluorescence intensity (a.u.)
23,AAATCCATACACACGTCGATTCGTATCTGACTCGGTCTGCCGGAGTCACCTAGTGCAG,7910 fluorescence intensity (a.u.)
24,TGTTTAAGTTTGTCCTAATTACCTGTCACATTTTCCGTGCCGGAGTCACCTAGTGCAG,4020 fluorescence intensity (a.u.)
25,TGGACCTGAACCGAACCACTAAGTAGTAGTACGTGTGAGGCGGAGTCACCTAGTGCAG,41100 fluorescence intensity (a.u.)
26,CCTTTTCCTCTCTCATAAAGTTACATCACCTTAGTTTTGCCGGAGTCACCTAGTGCAG,6080 fluorescence intensity (a.u.)
27,CTGCTGCCGTCGCAGAAGGTGCTGACATGGCCAGGGGTGGCGGAGTCACCTAGTGCAG,45300 fluorescence intensity (a.u.)

# Quoted at random: 4 records from the list
row,Sequence,binding signal
6,GCCCAACTCTAACAAAAGCCTATTTAACATTACCGGCCCACGGAGTCACCTAGTGCAG,3530 fluorescence intensity (a.u.)
7,TTCCTTGTGTGAGGTCAGCACTATGTCTTTTCCATGCTACCGGAGTCACCTAGTGCAG,5810 fluorescence intensity (a.u.)
19,GTGAAAGACACGCCGAACATGGATGCCGTCTACACCTCCTCGGAGTCACCTAGTGCAG,3220 fluorescence intensity (a.u.)
4,TACACTATTAATATCTGGTCCCACCTGTCATACACACACTCGGAGTCACCTAGTGCAG,3720 fluorescence intensity (a.u.)

# (next part)

row,Sequence,binding signal
1,GGAGTGAGGACTGAGGAGGAAGAAGAGGGCGGGATCTAGGCGGAGTCACCTAGTGCAG,17900 fluorescence intensity (a.u.)
2,CCTGAATTTGCTGGGATTTTACGAGAAATATAGCACAAGTCGGAGTCACCTAGTGCAG,33800 fluorescence intensity (a.u.)
3,GCGTGGGCCCGCGCCGCCCGCCTGGGGACGACGGCGACGCCGGAGTCACCTAGTGCAG,3470 fluorescence intensity (a.u.)
4,AATTTGTACGCGCGCATTCAGTTTTCATTTCAGTTCGAAACGGAGTCACCTAGTGCAG,3900 fluorescence intensity (a.u.)
5,ATAAGTTGTTACCTAGAATGAAACATGATGTGGCAATGACCGGAGTCACCTAGTGCAG,7660 fluorescence intensity (a.u.)
6,CCATAGAGGTCTCGAGAGTGCTGATAGTAACTCATAACTGCGGAGTCACCTAGTGCAG,3490 fluorescence intensity (a.u.)
7,TACCGCATCTGACGCCTCCGCATCCAAAGCAACGTCATGGCGGAGTCACCTAGTGCAG,5290 fluorescence intensity (a.u.)
8,GCCACACGCGGCGCACGCCAGCGCGAGCCACATGGCGTCCCGGAGTCACCTAGTGCAG,6430 fluorescence intensity (a.u.)
9,GTTACCATAGGGTTGGTTATGTCACTAAAGAACCCATGTCCGGAGTCACCTAGTGCAG,3290 fluorescence intensity (a.u.)
10,GAGCGCCTTGACACGTGAACATTCGCACATTTGACCTTCCCGGAGTCACCTAGTGCAG,3280 fluorescence intensity (a.u.)
11,GTGAGAATTCCAAGGCAATAATACACGTAAGGTACAGTAGCGGAGTCACCTAGTGCAG,7330 fluorescence intensity (a.u.)
12,GTCTCGTCTCGTCTCGTCTCGTCTCGTGTCGCCTCAACCCCGGAGTCACCTAGTGCAG,3300 fluorescence intensity (a.u.)
13,GTGGTAAACTGGTAAGAGCAAGTATAATAAAAGGATGTGCCGGAGTCACCTAGTGCAG,5560 fluorescence intensity (a.u.)
14,AAATATGAGTATGACGCGTGTGCCAAAATACTAATAAAATCGGAGTCACCTAGTGCAG,3340 fluorescence intensity (a.u.)
15,TGTGTGACTGTGTGCGACCCTGGTCAGGTCAACTCCGCGACGGAGTCACCTAGTGCAG,3600 fluorescence intensity (a.u.)
16,TTTGAATGTCCATTATTCTGAAATCTGAAACATATATTCACGGAGTCACCTAGTGCAG,5190 fluorescence intensity (a.u.)
17,GGCGACGGTGCGCTGCGTTGTCCTAGTGTTTGTCCTTGTCCGGAGTCACCTAGTGCAG,4320 fluorescence intensity (a.u.)
18,GTGCGCGCGGTGCTTAGGCAGACGCGGCCCAGATCGGCGCCGGAGTCACCTAGTGCAG,40500 fluorescence intensity (a.u.)
19,TCCAAATCCTATGAAATTCCTATGGAAATCCACGTTGCATCGGAGTCACCTAGTGCAG,7670 fluorescence intensity (a.u.)
20,ACAATTTTAATGAAATCGTACATTATACTATATATGTTTTCGGAGTCACCTAGTGCAG,3150 fluorescence intensity (a.u.)
21,GCTCGCCGACCTCCTCCTATTAAAACCCGATGATTCCGTGCGGAGTCACCTAGTGCAG,28400 fluorescence intensity (a.u.)
22,ATGTAGTCGTAGCAGAACGTCGATGGTGGAGATGTAGTCACGGAGTCACCTAGTGCAG,3830 fluorescence intensity (a.u.)
23,CACAAATTTGAACAAACACATTCATGATTCATCCCCTCCACGGAGTCACCTAGTGCAG,4930 fluorescence intensity (a.u.)
24,AATATTGACCTGAATACTTGATGCCATCTGACGCATATGTCGGAGTCACCTAGTGCAG,5740 fluorescence intensity (a.u.)
25,CTCCTCCCCTTTCACGCCGCCGCTCCGCCCCGCCACCCTCCGGAGTCACCTAGTGCAG,3710 fluorescence intensity (a.u.)
26,GCGGCTTGCGTAAGCCCGTATAAGTTCACGGGTTACACTGCGGAGTCACCTAGTGCAG,7160 fluorescence intensity (a.u.)
27,GACGAGTACTATAATATCTGACACACTCATACCCCAGTGTCGGAGTCACCTAGTGCAG,4420 fluorescence intensity (a.u.)
